This is an account of results in PMC7288058, “Modulating the Properties of Fe(III) Macrocyclic MRI Contrast Agents by Appending Sulfonate or Hydroxyl Groups” (Molecules, 2020).

A short description of data set [1]: Variable-temperature 17O-NMR resonance broadening. In kind it is physicochemical. The note with it: for 17O resonance peak width relative to maximum peak width of Fe(CDTA): neutral pH; for 17O resonance peak width relative to Fe(CDTA): pH 3.
The nature of data set [2]: Benzoate hydroxylation fluorescence assay (hydroxyl radical production with ascorbate and H2O2). The note with it: for hydroxyl radical production / hydroxylation of aromatics: ascorbate and peroxide present; for % Benzoate Oxidation: normalized to amount produced by Fe(EDTA), 50.0 μM complex, ascorbate, H2O2, pH 7.4, 37 °C, 1 h.

For the compound `C[C@H]([O-])CN1CCN(CCCS(=O)(=O)[O-])CCN(C[C@H](C)O)CC1.O.[Fe+3]` [Fe(L1)(OH2)], in data set [1], the “17O resonance peak width relative to maximum peak width of Fe(CDTA)” value is roughly 1% and the “17O resonance peak width relative to Fe(CDTA)” value is recorded as roughly 7%. Besides, in data set [2], the “hydroxyl radical production / hydroxylation of aromatics” value is on record as “does not produce hydroxylation of aromatics” and the “% Benzoate Oxidation” value is recorded as 3.57 ± 0.18%.
Take `C[C@H]([O-])CN1CCN(C[C@H](C)O)CCN(C[C@H](C)O)CC1.[Fe+3]` [Fe(L2)]: in data set [2], the “hydroxyl radical production / hydroxylation of aromatics” value is given as “does not produce hydroxylation of aromatics” and the “% Benzoate Oxidation” value is 3.76 ± 0.85%.
`C[C@H]([O-])CN1CCN(Cc2ccccc2)CCN(C[C@H](C)O)CC1.O.[Fe+3]` [Fe(L3)(OH2)]: in data set [1], the “17O resonance peak width relative to maximum peak width of Fe(CDTA)” value is “about 15%” and the “17O resonance peak width relative to Fe(CDTA)” value is “about 21%”.
